Test [1] deals with GST-tagged mouse IP6K1 (mouse) (UniProt Q6PD10). The experiment in a line: pull-down.
For test [2], the target named is myc-tagged human IP6K2 (human) (UniProt Q9UHH9). Nature of the test: co-IP.
Test [3] deals with T1, myc-tagged human IP6K3 (human) (UniProt Q96PC2).
T1 sequence: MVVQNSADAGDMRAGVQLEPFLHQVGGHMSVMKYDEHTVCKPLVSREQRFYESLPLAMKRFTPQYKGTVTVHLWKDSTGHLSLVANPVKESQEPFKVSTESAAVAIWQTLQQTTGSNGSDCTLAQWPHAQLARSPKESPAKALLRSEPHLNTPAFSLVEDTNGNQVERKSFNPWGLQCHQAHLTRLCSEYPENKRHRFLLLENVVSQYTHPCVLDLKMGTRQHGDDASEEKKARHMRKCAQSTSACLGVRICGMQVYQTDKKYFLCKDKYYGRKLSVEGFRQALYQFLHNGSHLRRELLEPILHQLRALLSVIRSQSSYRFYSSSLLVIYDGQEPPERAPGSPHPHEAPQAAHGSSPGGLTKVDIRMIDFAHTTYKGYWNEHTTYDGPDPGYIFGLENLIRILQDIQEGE
Nature of the test: co-IP.

Sequences of proteins named here, by UniProt entry; tags and fusion partners are left off.
UniProt Q6PD10: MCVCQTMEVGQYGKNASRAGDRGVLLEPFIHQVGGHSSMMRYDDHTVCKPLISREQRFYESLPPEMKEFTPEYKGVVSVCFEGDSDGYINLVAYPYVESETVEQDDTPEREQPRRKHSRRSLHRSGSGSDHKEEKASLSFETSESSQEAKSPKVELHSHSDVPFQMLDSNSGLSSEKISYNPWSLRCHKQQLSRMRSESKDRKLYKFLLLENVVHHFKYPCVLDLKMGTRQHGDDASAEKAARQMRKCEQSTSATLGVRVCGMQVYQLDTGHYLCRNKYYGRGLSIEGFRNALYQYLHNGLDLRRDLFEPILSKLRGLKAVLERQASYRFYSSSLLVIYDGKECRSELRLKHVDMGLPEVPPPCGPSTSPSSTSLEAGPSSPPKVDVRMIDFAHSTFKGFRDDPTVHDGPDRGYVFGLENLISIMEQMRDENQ
UniProt Q9UHH9: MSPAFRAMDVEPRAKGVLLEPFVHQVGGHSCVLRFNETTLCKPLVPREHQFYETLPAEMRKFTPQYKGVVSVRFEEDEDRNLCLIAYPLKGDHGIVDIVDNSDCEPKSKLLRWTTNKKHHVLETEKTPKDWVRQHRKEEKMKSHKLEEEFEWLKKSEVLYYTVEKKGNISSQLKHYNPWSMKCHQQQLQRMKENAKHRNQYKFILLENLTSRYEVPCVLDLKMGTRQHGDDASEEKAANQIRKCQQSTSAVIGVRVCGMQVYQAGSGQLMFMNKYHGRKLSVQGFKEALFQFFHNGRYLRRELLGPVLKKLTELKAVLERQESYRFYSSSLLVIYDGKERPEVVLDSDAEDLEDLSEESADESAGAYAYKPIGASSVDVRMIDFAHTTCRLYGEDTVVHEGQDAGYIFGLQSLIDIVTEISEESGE
UniProt Q92551: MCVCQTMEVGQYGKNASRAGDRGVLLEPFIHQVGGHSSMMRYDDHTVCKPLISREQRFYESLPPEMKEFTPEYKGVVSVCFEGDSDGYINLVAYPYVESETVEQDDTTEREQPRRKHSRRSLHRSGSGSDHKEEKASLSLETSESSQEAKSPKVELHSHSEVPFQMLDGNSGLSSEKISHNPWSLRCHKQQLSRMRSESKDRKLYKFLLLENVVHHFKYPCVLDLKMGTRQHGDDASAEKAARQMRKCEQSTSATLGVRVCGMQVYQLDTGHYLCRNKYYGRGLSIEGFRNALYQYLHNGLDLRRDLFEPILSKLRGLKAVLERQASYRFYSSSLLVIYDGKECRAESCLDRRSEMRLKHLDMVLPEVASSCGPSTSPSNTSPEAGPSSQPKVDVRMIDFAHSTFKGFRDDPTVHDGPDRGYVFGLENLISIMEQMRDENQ

The target of test [4] is myc-tagged mouse IP6K1 (mouse) (UniProt Q6PD10). The experiment in a line: co-IP.
Test [5] deals with endogenous IP6K1 of AGS cells (human (endogenous in AGS)) (UniProt Q92551). Nature of the test: co-IP.

No constants are given. Whether binding was seen depends on the method and setting. In cells and extracts the contact can be indirect. Some results given as binding are weak or reduced against the parent protein; the word gives no strength. For some assays here: Tags and fused reporters may be left off the sequences shown.

B1: mouse Syndecan-4 (SDC4) tagged C-terminally with mCherry (protein, UniProt O35988 24-198)
chain: ESIRETEVIDPQDLLEGRYFSGALPDDEDAGGSDDFELSGSGDLDDTEEPRPFPEVIEPLVPLDNHIPENAQPGIRVPSEPKELEENEVIPKRAPSDVGDDMSNKVSMSSTAQGSNIFERTEVLAALIVGGVVGILFAVFLILLLVYRMKKKDEGSYDLGKKPIYKKAPTNEFYA
With B1, the binding entry in test [1] was “binds”; in test [2], “no binding”; in test [3], “no binding”; in test [4], “binds”.

B2: endogenous Syndecan-4 (SDC4) of AGS cells (protein, UniProt P31431 19-198)
chain: ESIRETEVIDPQDLLEGRYFSGALPDDEDVVGPGQESDDFELSGSGDLDDLEDSMIGPEVVHPLVPLDNHIPERAGSGSQVPTEPKKLEENEVIPKRISPVEESEDVSNKVSMSSTVQGSNIFERTEVLAALIVGGIVGILFAVFLILLLMYRMKKKDEGSYDLGKKPIYKKAPTNEFYA
For the molecule B2, the binding entry in test [5] is given as “binds”.

(Values after paper doi:10.1101/2025.09.17.676719.)
